Measured values published in patent publication US20220235139A1 (ROCHE DIAGNOSTICS OPERATIONS, published 2022).
No constants are given. Whether binding was seen depends on the method and setting.

Assays:
TtSlyDsh3 [1] = target: T1, TtSlyDsh3; assay: SPR (Biacore), captured antibody, single injection of 300 nM analyte
T1 sequence: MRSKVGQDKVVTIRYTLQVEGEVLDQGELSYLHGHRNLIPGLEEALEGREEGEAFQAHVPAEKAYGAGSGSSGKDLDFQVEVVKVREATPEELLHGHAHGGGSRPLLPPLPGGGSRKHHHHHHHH

TtSlyDsh3 [2] = target: T1, TtSlyDsh3; assay: SPR (Biacore), antibody captured, analyte in solution

B1: antibody 1H11 (antibody, V domains shown)
VH: QSVEESGGRLVTPGTPLTLTCTASGFSLSRYWMTWVRQAPGKGLEYIGWIDRSGNTYFADWAKGRFTGSKTSTTRDLKITSPTTEDTATYFCGRGGQNNGYDLWGPGTLVTVSS
VL: AAVLTQTPSPVSAAVGGTVTISCQSSESVYSNNFLSWYQLKPGQRPRLLIYEASKVASGVPSRFSGSGSGTQFTLTISGVQCDDAATYYCAGGYDVSDDAFGGGTEVLVK
notes: Rabbit full length IgG made recombinantly in FreeStyle 293-F cells; For SPR it was captured from HEK culture supernatant on goat anti-rabbit F(ab)2; no sentence ties 1H11 to them directly; also called rabbit monoclonal anti-CSF-1R antibody
For B1, the binding (TtSlyDsh3 [1]) was “no binding (tested: 300 nM)” and the binding (TtSlyDsh3 [2]) was “no binding (tested: 300 nM)”.
